# Measurements as given in PubChem BioAssay AID274 (DTP/NCI, 2004).
# The list does not hold the whole screen: it is rich in T/C values a quarter to a half above the control, in often repeated tests (any T/C) and in doses without a T/C. Other doses and runs of a compound stand elsewhere. T/C gives the treated animals as a percentage of the vehicle group. Some entries give survivors of the animals treated and no T/C: the source holds a T/C of zero for them, seemingly a mark for toxic or unscored doses. Some doses without a T/C left all or most animals alive at the check, yet need not have been tolerated: the source hardly ever lists a survival T/C far under the control, and the zero likely stands for such cases as well. Counts of survivors are from the toxicity check (mostly the fifth day) where no day follows; animals may have died later. Schedules are NCI's codes, taken here to give the interval after Q, in days (D) or hours (H), and the number of doses after X. Some entries were tested several times; the results are listed from low to high. For survival time, the PubChem record calls one and a half times the control and up active, and a quarter to a half above the control has no call in these data; cut-offs in other NCI protocols can differ.
# System: BDF1 mice, Lewis lung carcinoma iv, survival T/C
# Experiment: NCI In Vivo Anticancer Drug Screen. Data for tumor model Lewis Lung Carcinoma (intravenous) in B6D2F1 (BDF1) mice
# Conditions: T/C endpoint: median survival time, higher T/C = longer survival
# Method: The antitumor activity of compounds was measured in mice bearing transplantable tumors. Survival or tumor size were measured and the results are expressed as the measurement made in the treated group (T) divided by the measurement made in the vehicle treated control group (C). The tumor model used in this assay is Lewis Lung Carcinoma (intravenous) in B6D2F1 (BDF1) mice
# [1] = dose: 12.5 mg/kg/injection, schedule: Q01DX009 (ip), vehicle: saline
# [2] = dose: 25.0 mg/kg/injection, schedule: Q01DX009 (ip), vehicle: saline
# [3] = dose: 50.0 mg/kg/injection, schedule: Q01DX009 (ip), vehicle: saline
# [4] = dose: 200.0 mg/kg/injection, schedule: Q01DX009 (ip), vehicle: saline
# [5] = dose: 400.0 mg/kg/injection, schedule: Q01DX009 (ip), vehicle: saline
# [6] = dose: 800.0 mg/kg/injection, schedule: Q01DX009 (ip), vehicle: saline
# [7] = dose: 200.0 mg/kg/injection, schedule: Q01DX009 (ip), vehicle: Klucel (hydroxypropylcellulose) (HPC)
# [8] = dose: 25.0 mg/kg/injection, schedule: Q01DX009 (ip), vehicle: saline with Tween-80
# [9] = dose: 400.0 mg/kg/injection, schedule: Q01DX009 (ip), vehicle: saline with Tween-80
structure (smiles),measurement,setting,value
COc1cc2c(c(OC)c1OC)-c1ccc(OC)c(=O)cc1[C@@H](NC(C)=O)CC2,survivor count,"dose: 0.75 mg/kg/injection, schedule: Q01DX009 (ip), vehicle: saline",8 of 10
same,survivor count,"dose: 1.5 mg/kg/injection, schedule: Q01DX009 (ip), vehicle: saline",8 of 10
same,survivor count,"dose: 3.0 mg/kg/injection, schedule: Q01DX009 (ip), vehicle: saline",2 of 10
same,survivor count,"dose: 6.0 mg/kg/injection, schedule: Q01DX009 (ip), vehicle: saline",1 of 10
same,survivor count,[1],0 of 10
same,survivor count,[2],0 of 10
same,survivor count,[3],0 of 10
same,survivor count,"dose: 100.0 mg/kg/injection, schedule: Q01DX009 (ip), vehicle: saline",0 of 10
same,survivor count,[4],0 of 10
same,survivor count,[5],0 of 10
C=C1C(=O)C2=CC1CCC(=O)C1(C)CCC(OC(C)=O)C(C)(C)C1CC2O (stereo unspecified),survivor count,"dose: 120.0 mg/kg/injection, schedule: Q01DX009 (ip), vehicle: Klucel (hydroxypropylcellulose) (HPC)",0 of 10
Nc1nc(=S)c2ncn(C3OC(CO)CC3O)c2[nH]1 (stereo unspecified),survivor count,"dose: 40.0 mg/kg/injection, schedule: Q01DX009 (ip), vehicle: saline",10 of 10
CCOC(=O)C(N)CSC(=O)NC (stereo unspecified),survivor count,[6],1 of 9
O=C(NO)c1ccc(O)c(O)c1,T/C,"dose: 400.0 mg/kg/injection, schedule: Q01DX009 (ip), vehicle: water",131 % of control
same,survivor count,"dose: 600.0 mg/kg/injection, schedule: Q01DX009 (ip), vehicle: suspension in saline",6 of 10
same,survivor count,"dose: 800.0 mg/kg/injection, schedule: Q01DX009 (ip), vehicle: water",4 of 10
O=NN(CCCl)C(=O)NCCCl,survivor count,"dose: 24.0 mg/kg/injection, schedule: Q01DX009 (ip), vehicle: Klucel (hydroxypropylcellulose) (HPC)",10 of 10
same,T/C,"dose: 30.0 mg/kg/injection, schedule: Q01DX001 (ip), vehicle: saline + alcohol, evaluated on day 18",139 % of control
same,T/C,"dose: 30.0 mg/kg/injection, schedule: Q01DX001 (ip), vehicle: saline + alcohol, evaluated on day 60",139 % of control
O=C(Nc1ccc(N=C=S)cc1Cl)c1cc(Cl)cc(Cl)c1O,survivor count,"dose: 100.0 mg/kg/injection, schedule: Q01DX009 (ip), vehicle: Klucel (hydroxypropylcellulose) (HPC)",7 of 10
same,survivor count,[7],5 of 10
N=c1ccn2c(n1)OC1C(O)C(CO)OC12 (stereo unspecified),T/C,[3],126 % of control
same,T/C,[4],137 % of control
same,T/C,[5],140 % of control
same,survivor count,[6],9 of 10
CCOC(=O)C1C2OC(=O)C(C(=O)C2CN(CCCl)CCCl)C1C1CC=C(CC2=CCC(C3C4C(=O)OC(C(CN(CCCl)CCCl)C4=O)C3C(=O)OCC)CC2)CC1 (stereo unspecified),survivor count,[7],10 of 10
same,survivor count,"dose: 400.0 mg/kg/injection, schedule: Q01DX009 (ip), vehicle: Klucel (hydroxypropylcellulose) (HPC)",10 of 10
CC[C@](C)(O)C(=O)O[C@H]1C(=O)O[C@@H]2C[C@H]3C(C)=CC(=O)[C@@H](O)[C@]3(C)[C@H]3[C@@]4(O)OC[C@]32[C@@H]1[C@@H](C)[C@H]4O,survivor count,"dose: 1.0 mg/kg/injection, schedule: Q01DX009 (ip), vehicle: steroid suspending solution",4 of 10
same,survivor count,"dose: 2.0 mg/kg/injection, schedule: Q01DX009 (ip), vehicle: steroid suspending solution",0 of 10
Cc1ccc[c]([Hg][Cl])c1N=Nc1ccccc1,survivor count,"dose: 0.39 mg/kg/injection, schedule: Q01DX009 (ip), vehicle: saline with Tween-80",10 of 10
C/C=C/C=C/c1cc2cc3c(c(O)c2c(=O)[nH]1)C1(CC3)C(O)=c2c(=O)c3c(=O)cc(OC)c(=O)c=3c(=O)c2=C1O (stereo unspecified),survivor count,"dose: 0.12 mg/kg/injection, schedule: Q01DX009 (ip), vehicle: DMSO",9 of 10
same,survivor count,"dose: 0.5 mg/kg/injection, schedule: Q01DX009 (ip), vehicle: DMSO",1 of 10
same,survivor count,"dose: 1.0 mg/kg/injection, schedule: Q01DX009 (ip), vehicle: DMSO",0 of 10 and 8 of 10
same,survivor count,"dose: 2.0 mg/kg/injection, schedule: Q01DX009 (ip), vehicle: DMSO",0 of 10 and 1 of 10
ClCC[Se](Cl)(Cl)c1ccccc1,survivor count,"dose: 6.25 mg/kg/injection, schedule: Q01DX009 (ip), vehicle: saline",10 of 10
same,survivor count,[1],2 of 10
same,survivor count,[2],3 of 10
Nc1nc([Se])c2ncn(C3OC(CO)C(O)C3O)c2n1 (stereo unspecified),survivor count,"dose: 16.0 mg/kg/injection, schedule: Q01DX009 (ip), vehicle: saline",10 of 10
same,survivor count,"dose: 32.0 mg/kg/injection, schedule: Q01DX009 (ip), vehicle: saline",10 of 10
same,survivor count,"dose: 64.0 mg/kg/injection, schedule: Q01DX009 (ip), vehicle: saline",8 of 10
COc1c2occc2cc2ccc(=O)oc12,survivor count,"dose: 256.0 mg/kg/injection, schedule: Q01DX009 (ip), vehicle: saline with Tween-80",8 of 10
O=C1CN(CN2CCOCC2)C(=O)CN1CN1CCOCC1,survivor count,[5],3 of 10
Cc1cc(N(CC(C)Br)CC(C)Br)ccc1N=Nc1ccccc1C(=O)O (stereo unspecified),survivor count,[8],10 of 10
CC(C)NC(=O)OCc1c(COC(=O)NC(C)C)c(-c2ccc(Cl)c(Cl)c2)n2c1CCC2,T/C,"dose: 25.0 mg/kg/injection, schedule: Q01DX009 (ip), vehicle: distilled water + Tween-80",125 % of control
COc1cc(NS(C)(=O)=O)ccc1Nc1c2ccccc2nc2ccccc12,T/C,"dose: 10.0 mg/kg/injection, schedule: Q04DX003 (ip), vehicle: clinical formulation",140 % of control
COC1NC(=O)NC(=O)C1=[N+]=[N-] (stereo unspecified),survivor count,"dose: 16.0 mg/kg/injection, schedule: Q01DX009 (ip), vehicle: water",8 of 10
Nc1cc(Cl)c2[nH]cnc2n1,survivor count,"dose: 200.0 mg/kg/injection, schedule: Q01DX009 (ip), vehicle: distilled water + Tween-80",10 of 10
CCCC(=O)O,survivor count,[4],5 of 10
same,survivor count,[5],0 of 10
Cc1ccc2c(c1)C(=O)N(CC[P+](c1ccccc1)(c1ccccc1)c1ccccc1)C2=O,survivor count,"dose: 25.0 mg/kg/injection, schedule: Q09DX009 (ip), vehicle: water",3 of 10
CCN(CC)CCOCCO,survivor count,[5],0 of 10
ClCc1ccc2ccccc2n1,survivor count,"dose: 200.0 mg/kg/injection, schedule: Q01DX009 (ip), vehicle: saline with Tween-80",7 of 10
same,survivor count,[9],0 of 10
Nc1nc(/C=C(/O)c2ccccc2)c2ncn(C3OC(CO)C(O)C3O)c2n1 (stereo unspecified),survivor count,[4],8 of 10
same,survivor count,[5],3 of 10
NC(Cc1cc([N+](=O)[O-])ccc1CN(CCCl)CCCl)C(=O)O (stereo unspecified),T/C,"dose: 9.0 mg/kg/injection, schedule: Q04DX003 (ip), vehicle: Klucel (hydroxypropylcellulose) (HPC)",130 % of control
same,survivor count,"dose: 25.0 mg/kg/injection, schedule: Q04DX003 (ip), vehicle: Klucel (hydroxypropylcellulose) (HPC)",8 of 8
CCCCCCCCCCCC(c1ccccc1)[N+](C)(C)Cc1ccccc1 (stereo unspecified),survivor count,"dose: 4.0 mg/kg/injection, schedule: Q01DX009 (ip), vehicle: saline",1 of 10
CCO/C=C1\SC(=S)N(c2ccccc2C)C1=O,survivor count,[9],10 of 10
CN(C)CCNc1ccc([N+](=O)[O-])c2sc3ccccc3c(=O)c12,T/C,[8],132 % of control
same,survivor count,"dose: 50.0 mg/kg/injection, schedule: Q01DX009 (ip), vehicle: saline with Tween-80",9 of 10
